Experimental data published in publication doi:10.1101/2025.05.28.656646.

Chains of the proteins cited; added tags and fusions are not shown.
UniProt P08758: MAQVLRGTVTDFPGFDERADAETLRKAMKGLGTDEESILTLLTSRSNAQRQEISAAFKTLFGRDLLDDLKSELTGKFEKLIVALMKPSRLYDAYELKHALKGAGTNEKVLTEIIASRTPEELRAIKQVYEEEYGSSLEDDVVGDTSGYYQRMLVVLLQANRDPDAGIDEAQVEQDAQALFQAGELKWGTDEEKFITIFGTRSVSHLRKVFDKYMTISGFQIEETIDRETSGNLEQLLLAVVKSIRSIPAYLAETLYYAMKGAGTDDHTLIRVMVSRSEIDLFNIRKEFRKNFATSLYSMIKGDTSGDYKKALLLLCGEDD

Biological target: Myc-tagged WT-PKCα (human) (UniProt P17252)
Assay: affinity purification with mass spectrometry

binding: binds
Substance: Annexin V (from UniProt P08758 1-320)

These are yes or no findings as the source states them, for the method shown. In cells and extracts the contact can be indirect. Here binding means that the protein was enriched with, or labelled near, the bait; the list need not be complete.
